Source: EP0549002A1, “Method for the preparation of an antiseptic composition containing clindamycin-hydrochloride and polymyxin” (Hak, Barend Willem, priority 1991, dated 1993)
≈ marks a conversion by molar mass, not a printed value.

How the values were obtained:
[1] = tested on: Mycoplasma hyorhinis type strain BTS-7; assay: microbe, parasite or virus in culture; conditions: 120 h
[2] = tested on: Pasteurella haemolytica 3R188 and 6R132; assay: microbe, parasite or virus in culture; conditions: Mannheimia haemolytica, 24 h, read-out: minimal inhibitory concentrations (MICs)

CCC[C@@H]1C[C@@H](C(=O)N[C@@H]([C@H]2O[C@H](SC)[C@H](O)[C@@H](O)[C@H]2O)[C@H](C)Cl)N(C)C1 [clindamycin, methyl-7-chloro-6,7,8-tri-desoxy-6-trans-(1-methyl-4-propyl-L-pyrrolidine-2-carboxamido)-1-thio-L-treo-α-D-galacto-octa-pyranoside]
MIC [1]: 1 µg/mL (≈ 2.35 µM) | MIC [2]: > 20 µg/mL
